Experimental findings from US20100150948A1, “MATERIALS AND METHODS FOR IMPROVED IMMUNOGLYCOPROTEINS” (TRUBION PHARMACEUTICALS, INC., priority 2006, published 2010) are described below.

For the data set, the system named is CHO cells transfected with TRU-016. The experiment in a line: Effect of castanospermine concentration on cell viability, density and specific protein production of TRU-016. Format: cell-based, Chinese hamster. The note with it: harvest day 8. The protocol:
Prior to initiation of the experiments, CHO cells transfected with TRU-016 were grown in shake flasks in Ex-Cell™ 302 CHO serum-free media (SAFC Biosciences) supplemented with 1× non-essential amino acids (MediaTech), 1× sodium pyruvate (MediaTech), 4 mM L-glutamine (MediaTech), 500 nM methotrexate (MP Biomedicals) and 1 mg/L recombinant insulin (Recombulin—GIBCO/Invitrogen Corp.) at 37° C. and 5% carbon dioxide in a humidified incubator. A 200 mM stock concentration of castanospermine (Alexis Biochemicals) was prepared by dilution of the castanospermine in sterile, distilled/deionized water (MediaTech) and filtration through a 13 mm Acrodisc® with a 0.2 μm HT Tuffryn membrane (Pall Corporation). Stock solution was aliquoted into sterile, O-ringed, 0.5 mL microcentrifuge tubes (Fisherbrand, Fisher Scientific) and frozen at −20° C. Approximately 1 hour prior to initiation of experiments, needed aliquots were thawed at room temperature and the contents of each vial mixed well by vortexing.
For each experiment, cells in log phase growth were seeded in the above medium into a total volume of 60 mL in 250 mL shaker flasks at a density of 200,000 cells/mL and CS added at the concentration to be tested. Final CS concentrations of 800 μM, 400 μM, 200 μM, 100 μM, 50 μM, 25 μM and 0 μM were each tested in duplicate flasks. All cultures were incubated at 37° C. and 5% carbon dioxide in a humidified incubator and monitored at least every other day for viable cell density and overall cell viability.
Cultures were harvested on day 8 when overall cell viability was 50-70% (Expt. 1) and 30-50% (Expt. 2). Cells and cellular debris were removed by centrifugation in a Sorvall Super T21 at 3000 rpm for 20 minutes after which the supernatant was sterile filtered through a Millipore Steriflip unit with a 0.22 μm Millipore Express Plus membrane and stored at 2-8° C. until purification.

Take `O[C@H]1[C@H](O)[C@@H](O)CN2CC[C@H](O)[C@H]12` [castanospermine]: the “Average TRU-016 Produced (ug/mL) ± SD” value runs as follows: (CS 25 μM) 180.31 ± 6.6 µg/mL; (CS 50 μM) 176.63 ± 1.0 µg/mL; (CS 100 μM) 161.83 ± 0.1 µg/mL; (CS 200 μM) 143.53 ± 1.4 µg/mL; (CS 400 μM) 124.93 ± 1.4 µg/mL; (CS 800 μM) 99.65 ± 6.1 µg/mL.
